Measurements from the supplement of paper PMC10849652.
This is one part of the list. Residues, ends and D or L forms follow the SMILES beside them. *: point of attachment. Cbz = O=C(OCc1ccccc1)*

Sequences of proteins named here, by UniProt entry; tags and fusion partners are left off. A change or cut given only in a name is not applied to a line headed by its entry.
UniProt P16260: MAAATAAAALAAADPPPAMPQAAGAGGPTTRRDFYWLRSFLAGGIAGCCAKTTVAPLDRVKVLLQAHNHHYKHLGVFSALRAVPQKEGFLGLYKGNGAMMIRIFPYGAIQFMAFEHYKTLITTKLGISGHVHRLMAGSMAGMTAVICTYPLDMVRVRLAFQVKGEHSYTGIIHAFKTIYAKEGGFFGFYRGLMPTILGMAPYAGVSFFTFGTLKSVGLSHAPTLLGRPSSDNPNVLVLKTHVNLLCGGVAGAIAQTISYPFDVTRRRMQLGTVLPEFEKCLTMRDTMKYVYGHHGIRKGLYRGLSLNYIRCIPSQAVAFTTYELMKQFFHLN
UniProt Q9H1U9: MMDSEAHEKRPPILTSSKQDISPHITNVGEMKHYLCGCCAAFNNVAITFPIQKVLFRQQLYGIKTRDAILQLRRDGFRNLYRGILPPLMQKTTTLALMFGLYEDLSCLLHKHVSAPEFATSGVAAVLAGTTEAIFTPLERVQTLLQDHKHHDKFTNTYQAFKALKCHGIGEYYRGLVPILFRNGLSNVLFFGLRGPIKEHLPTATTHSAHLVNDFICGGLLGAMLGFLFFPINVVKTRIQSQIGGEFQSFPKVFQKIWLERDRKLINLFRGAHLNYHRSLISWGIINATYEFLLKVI
UniProt Q00325: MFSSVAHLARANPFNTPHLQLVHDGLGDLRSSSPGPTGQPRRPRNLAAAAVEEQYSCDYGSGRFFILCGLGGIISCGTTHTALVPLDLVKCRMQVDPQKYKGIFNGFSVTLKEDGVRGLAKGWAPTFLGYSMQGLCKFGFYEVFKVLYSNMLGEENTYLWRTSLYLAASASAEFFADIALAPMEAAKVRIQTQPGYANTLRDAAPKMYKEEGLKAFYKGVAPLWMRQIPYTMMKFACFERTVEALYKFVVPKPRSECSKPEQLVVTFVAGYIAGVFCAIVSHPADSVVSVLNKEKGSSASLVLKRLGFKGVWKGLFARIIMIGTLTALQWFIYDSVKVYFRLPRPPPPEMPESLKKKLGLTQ
UniProt Q8WUX1, whole entry, looked up: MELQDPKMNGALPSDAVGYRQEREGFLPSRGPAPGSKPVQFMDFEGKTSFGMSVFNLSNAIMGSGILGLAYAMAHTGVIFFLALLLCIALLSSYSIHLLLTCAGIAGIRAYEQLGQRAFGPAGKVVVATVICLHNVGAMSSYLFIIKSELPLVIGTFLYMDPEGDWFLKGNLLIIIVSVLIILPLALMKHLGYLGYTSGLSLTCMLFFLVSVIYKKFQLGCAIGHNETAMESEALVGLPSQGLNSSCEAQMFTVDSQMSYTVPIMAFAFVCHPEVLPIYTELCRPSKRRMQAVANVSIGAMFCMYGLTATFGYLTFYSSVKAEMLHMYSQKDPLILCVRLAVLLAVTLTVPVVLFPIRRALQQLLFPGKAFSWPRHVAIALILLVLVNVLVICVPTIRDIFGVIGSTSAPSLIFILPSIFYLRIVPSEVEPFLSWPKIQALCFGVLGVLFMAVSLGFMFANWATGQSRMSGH
UniProt P53985: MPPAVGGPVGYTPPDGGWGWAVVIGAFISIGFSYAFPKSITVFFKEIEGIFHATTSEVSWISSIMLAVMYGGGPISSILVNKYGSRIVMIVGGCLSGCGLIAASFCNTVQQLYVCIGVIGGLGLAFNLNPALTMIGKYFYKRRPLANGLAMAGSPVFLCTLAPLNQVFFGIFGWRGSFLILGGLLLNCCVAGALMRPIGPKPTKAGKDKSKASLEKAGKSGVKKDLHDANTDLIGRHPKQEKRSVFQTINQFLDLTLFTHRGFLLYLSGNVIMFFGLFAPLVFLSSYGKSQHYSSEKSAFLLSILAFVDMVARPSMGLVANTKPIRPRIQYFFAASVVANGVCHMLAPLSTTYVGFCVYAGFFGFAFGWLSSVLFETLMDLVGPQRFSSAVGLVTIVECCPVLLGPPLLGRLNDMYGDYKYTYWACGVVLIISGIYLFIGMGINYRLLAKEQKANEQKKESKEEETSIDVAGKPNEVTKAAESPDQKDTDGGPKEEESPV
UniProt Q9BQT8: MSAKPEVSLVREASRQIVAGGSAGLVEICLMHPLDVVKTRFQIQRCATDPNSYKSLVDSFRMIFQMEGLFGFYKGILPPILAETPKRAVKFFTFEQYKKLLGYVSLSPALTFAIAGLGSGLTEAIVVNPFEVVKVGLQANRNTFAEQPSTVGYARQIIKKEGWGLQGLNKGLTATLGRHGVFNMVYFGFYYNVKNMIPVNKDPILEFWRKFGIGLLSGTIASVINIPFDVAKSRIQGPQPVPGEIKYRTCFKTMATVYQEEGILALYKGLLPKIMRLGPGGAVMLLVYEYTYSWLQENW
UniProt Q99808: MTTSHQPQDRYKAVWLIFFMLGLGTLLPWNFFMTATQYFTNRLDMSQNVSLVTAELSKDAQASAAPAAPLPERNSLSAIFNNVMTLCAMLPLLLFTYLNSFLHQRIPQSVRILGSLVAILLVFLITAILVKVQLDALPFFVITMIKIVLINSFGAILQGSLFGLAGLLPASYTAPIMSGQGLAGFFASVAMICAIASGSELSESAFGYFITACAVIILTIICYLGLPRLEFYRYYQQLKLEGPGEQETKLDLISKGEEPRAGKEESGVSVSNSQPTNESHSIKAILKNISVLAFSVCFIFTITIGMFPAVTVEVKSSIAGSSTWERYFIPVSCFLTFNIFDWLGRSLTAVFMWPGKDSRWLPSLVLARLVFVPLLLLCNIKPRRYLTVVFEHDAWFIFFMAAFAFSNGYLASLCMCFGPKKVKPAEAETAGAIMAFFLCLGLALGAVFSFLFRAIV
UniProt Q8IXU6: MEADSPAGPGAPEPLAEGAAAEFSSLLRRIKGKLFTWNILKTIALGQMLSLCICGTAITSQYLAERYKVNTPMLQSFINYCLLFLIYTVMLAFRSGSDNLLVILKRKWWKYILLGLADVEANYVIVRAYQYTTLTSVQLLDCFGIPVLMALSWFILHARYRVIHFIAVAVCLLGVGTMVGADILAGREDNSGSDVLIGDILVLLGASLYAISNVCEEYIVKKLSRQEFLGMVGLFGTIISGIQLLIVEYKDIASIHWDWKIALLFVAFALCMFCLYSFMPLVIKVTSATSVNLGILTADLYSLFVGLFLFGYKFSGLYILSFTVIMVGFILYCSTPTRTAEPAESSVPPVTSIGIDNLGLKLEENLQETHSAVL
UniProt Q96K37: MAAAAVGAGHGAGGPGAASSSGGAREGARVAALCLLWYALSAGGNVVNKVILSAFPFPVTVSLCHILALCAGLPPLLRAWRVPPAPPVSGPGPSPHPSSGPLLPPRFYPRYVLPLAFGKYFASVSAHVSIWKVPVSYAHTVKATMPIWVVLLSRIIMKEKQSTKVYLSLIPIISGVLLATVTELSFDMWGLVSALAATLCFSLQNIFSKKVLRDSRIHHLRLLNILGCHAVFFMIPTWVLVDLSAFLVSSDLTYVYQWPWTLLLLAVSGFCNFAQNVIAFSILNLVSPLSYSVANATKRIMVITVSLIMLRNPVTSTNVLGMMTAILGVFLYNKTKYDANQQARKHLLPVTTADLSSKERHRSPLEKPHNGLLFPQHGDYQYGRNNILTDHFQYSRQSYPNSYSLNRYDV
UniProt O75387: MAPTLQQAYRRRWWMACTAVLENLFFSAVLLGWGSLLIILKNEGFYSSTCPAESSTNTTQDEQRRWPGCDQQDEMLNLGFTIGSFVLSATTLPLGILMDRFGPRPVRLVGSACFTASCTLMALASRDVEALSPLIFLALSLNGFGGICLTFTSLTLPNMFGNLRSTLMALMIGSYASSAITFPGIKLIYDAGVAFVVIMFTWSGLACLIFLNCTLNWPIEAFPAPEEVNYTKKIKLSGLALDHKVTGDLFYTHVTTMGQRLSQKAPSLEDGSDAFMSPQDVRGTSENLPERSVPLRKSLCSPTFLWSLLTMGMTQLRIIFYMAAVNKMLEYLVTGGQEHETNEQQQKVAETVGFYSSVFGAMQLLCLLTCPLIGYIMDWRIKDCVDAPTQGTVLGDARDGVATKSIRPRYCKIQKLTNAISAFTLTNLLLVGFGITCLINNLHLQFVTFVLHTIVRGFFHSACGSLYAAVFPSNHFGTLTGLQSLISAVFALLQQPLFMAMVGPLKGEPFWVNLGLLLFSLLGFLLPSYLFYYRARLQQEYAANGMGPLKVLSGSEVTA
UniProt P30825: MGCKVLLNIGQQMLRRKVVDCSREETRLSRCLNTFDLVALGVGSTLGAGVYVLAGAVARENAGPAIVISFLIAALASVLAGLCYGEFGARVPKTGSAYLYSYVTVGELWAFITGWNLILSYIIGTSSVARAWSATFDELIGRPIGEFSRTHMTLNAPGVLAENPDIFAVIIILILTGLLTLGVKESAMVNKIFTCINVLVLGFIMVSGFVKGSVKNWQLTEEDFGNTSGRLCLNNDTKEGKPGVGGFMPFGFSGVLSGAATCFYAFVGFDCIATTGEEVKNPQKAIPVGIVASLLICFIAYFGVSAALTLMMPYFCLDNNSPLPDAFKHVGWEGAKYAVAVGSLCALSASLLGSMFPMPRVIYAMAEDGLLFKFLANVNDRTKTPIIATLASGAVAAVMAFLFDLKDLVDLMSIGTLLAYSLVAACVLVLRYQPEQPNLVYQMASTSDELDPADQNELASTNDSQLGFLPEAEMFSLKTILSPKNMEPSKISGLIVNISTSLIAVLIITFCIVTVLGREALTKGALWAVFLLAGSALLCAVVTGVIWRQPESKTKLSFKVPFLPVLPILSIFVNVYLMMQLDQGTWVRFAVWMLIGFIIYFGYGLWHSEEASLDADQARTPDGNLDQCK
UniProt Q9UBX3: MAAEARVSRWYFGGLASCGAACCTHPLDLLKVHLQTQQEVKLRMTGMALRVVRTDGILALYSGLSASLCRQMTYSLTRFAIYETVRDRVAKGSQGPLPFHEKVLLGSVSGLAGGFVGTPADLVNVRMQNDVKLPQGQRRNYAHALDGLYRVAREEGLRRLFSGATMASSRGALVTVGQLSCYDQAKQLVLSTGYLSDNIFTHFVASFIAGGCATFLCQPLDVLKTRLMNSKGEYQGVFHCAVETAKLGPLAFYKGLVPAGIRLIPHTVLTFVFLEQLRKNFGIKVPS
UniProt Q9BSK2: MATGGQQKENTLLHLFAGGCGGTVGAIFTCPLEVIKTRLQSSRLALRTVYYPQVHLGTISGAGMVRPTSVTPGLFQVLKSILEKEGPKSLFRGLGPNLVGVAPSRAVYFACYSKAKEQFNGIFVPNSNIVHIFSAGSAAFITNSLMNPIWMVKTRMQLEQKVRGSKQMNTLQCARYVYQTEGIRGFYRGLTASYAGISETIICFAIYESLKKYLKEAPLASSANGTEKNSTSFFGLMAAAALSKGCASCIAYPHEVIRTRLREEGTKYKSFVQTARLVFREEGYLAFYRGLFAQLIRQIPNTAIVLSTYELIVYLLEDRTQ
UniProt Q9UPY5: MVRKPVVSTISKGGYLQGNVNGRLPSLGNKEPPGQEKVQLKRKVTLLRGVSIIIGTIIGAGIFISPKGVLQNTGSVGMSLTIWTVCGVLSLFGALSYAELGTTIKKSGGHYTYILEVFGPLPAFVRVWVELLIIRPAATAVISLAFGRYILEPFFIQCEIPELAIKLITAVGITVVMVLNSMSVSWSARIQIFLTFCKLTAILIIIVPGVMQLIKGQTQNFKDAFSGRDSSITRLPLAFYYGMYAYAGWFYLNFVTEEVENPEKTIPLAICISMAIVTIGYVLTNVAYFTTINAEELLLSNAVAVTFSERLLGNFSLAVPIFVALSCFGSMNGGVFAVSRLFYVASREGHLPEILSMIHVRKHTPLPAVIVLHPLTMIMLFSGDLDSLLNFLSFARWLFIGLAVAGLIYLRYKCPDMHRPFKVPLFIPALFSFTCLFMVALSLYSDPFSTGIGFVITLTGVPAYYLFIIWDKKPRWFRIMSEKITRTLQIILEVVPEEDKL
UniProt P05141: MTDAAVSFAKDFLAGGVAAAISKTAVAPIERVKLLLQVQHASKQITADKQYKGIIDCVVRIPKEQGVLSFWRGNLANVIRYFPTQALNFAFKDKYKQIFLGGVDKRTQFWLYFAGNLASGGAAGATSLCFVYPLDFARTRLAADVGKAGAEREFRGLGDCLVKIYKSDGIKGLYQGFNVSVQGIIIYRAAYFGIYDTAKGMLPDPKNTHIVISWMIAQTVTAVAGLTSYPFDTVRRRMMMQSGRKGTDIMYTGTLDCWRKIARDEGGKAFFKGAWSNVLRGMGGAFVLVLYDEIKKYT
UniProt Q6NXT4: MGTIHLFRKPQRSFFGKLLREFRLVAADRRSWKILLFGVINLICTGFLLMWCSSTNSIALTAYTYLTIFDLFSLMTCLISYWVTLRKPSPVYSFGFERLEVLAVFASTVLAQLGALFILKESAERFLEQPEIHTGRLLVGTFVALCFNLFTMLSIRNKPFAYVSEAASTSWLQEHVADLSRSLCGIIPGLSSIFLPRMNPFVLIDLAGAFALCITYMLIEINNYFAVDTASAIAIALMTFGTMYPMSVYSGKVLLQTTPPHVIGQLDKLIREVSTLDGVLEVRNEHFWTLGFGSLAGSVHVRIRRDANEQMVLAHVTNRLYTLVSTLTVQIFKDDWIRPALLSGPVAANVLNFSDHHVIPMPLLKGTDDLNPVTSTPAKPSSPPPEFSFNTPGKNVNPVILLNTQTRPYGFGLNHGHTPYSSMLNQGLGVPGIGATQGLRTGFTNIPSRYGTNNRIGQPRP

Experiments:
Assay in all cases: log2 fold change, soluble protein after heating vs DMSO (PISA); higher = thermal stabilisation; K562 cells, 10 uM, 30 min; active = over 0.2 and 3.5 SD of the protein, either way, in both replicates (recomputed)
erlotinib = compound: C#Cc1cccc(Nc2ncnc3cc(OCCOC)c(OCCOC)cc23)c1 [erlotinib]
Method in brief: (§1)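 K562 cells (2×10^6 cells/mL) were treated with 10 μM compound for 30 min, and aliquots were heated for 3 min over 48°C-58°C. Pooled aliquots were extracted in PBS with 0.5% NP-40 at 4°C, and the supernatant after 21,000xg for 90 min was measured by TMTpro 16plex LC-MS/MS with channel sums equalised. Reported thermal stability, relative to control samples and from duplicates, is a log2 fold change.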

[1] = compound: C/C(=N\NC(=O)C1=CC(=CC=C1)S(=O)(=O)N2CCOCC2)/C3=C(C=CC(=C3)Cl)O
Method in brief: as §1

[2] = compound: C1=CC(=C(C=C1Cl)C2=NC3=NC=CN=C3C(=N2)NC4=CC=NC=C4)F
Method in brief: as §1

[3] = compound: C1=CC(=CC=C1C2=NC3=C(N2)C=C(C=C3)C(=O)N)OC4=CC=C(C=C4)Cl
Method in brief: as §1

[4] = compound: C1=CC2=C(C=CC(=C2)/C=C\3/C(=O)NC(=NCC4=CC=CS4)S3)N=C1
Method in brief: as §1

[5] = compound: C1=CC2=NC=CN=C2C=C1/C=C/3\C(=O)NC(=O)S3
Method in brief: as §1

[6] = compound: C1=CC=C(C=C1)C2=NC(=C(N2)C3=CC=NC=C3)C4=CC(=C(C=C4)Cl)O
Method in brief: as §1

[7] = compound: C1=CC=C2C(=C1)C3=NNC4=CC=CC(=C43)C2=O
Method in brief: as §1

[8] = compound: C1CCN(C1)C(=O)NC2=CC=CC(=C2)NC3=NC=C(C(=N3)NCCC4=CN=CN4)Br
Method in brief: as §1

[9] = compound: C1CN(CCC1(CC2=CC=C(C=C2)Cl)N)C3=NC=NC4=C3C=CN4
Method in brief: as §1

IRAK-1-4 Inhibitor I = compound: C1COCCN1CCN2C3=CC=CC=C3N=C2NC(=O)C4=CC(=CC=C4)[N+](=O)[O-] [IRAK-1-4 Inhibitor I]
Method in brief: as §1

ibrutinib = compound: C=CC(=O)N1CCC[C@@H](n2nc(-c3ccc(Oc4ccccc4)cc3)c3c(N)ncnc32)C1 [ibrutinib]
Method in brief: as §1

[10] = compound: CC(=O)c1cnc2ccc(-c3cc(Cl)c(O)c(Cl)c3)nc2c1N[C@H]1CC[C@H](CN(C)C)CC1
Method in brief: as §1

ralimetinib = compound: CC(C)(C)Cn1c(N)nc2ccc(-c3[nH]c(C(C)(C)C)nc3-c3ccc(F)cc3)nc21 [ralimetinib]
Method in brief: as §1

[11] = compound: CC(C)(O)CC(=O)NCCn1ccc2ncnc(Nc3ccc(Oc4cccc(C(F)(F)F)c4)c(Cl)c3)c21
Method in brief: as §1

[12] = compound: CC(C)C1=C2N=C(C=C(N2N=C1)NCC3=CC=CC=C3)NCCCCCCN
Method in brief: as §1

[13] = compound: CC(C)C[C@@H](C=O)NC(=O)[C@H](CC(C)C)NC(=O)[C@H](CC(C)C)NC(=O)OCc1ccccc1
Method in brief: as §1

pinometostat = compound: CC(C)N(C[C@H]1O[C@@H](n2cnc3c(N)ncnc32)[C@H](O)[C@@H]1O)[C@H]1C[C@@H](CCc2nc3cc(C(C)(C)C)ccc3[nH]2)C1 [pinometostat]
Method in brief: as §1

[14] = compound: CC1=C(C(CC(=O)N1)C2=CC=C(C=C2)C(F)(F)F)C(=O)NC3=C(C=C4C(=C3)C=NN4)F
Method in brief: as §1

[15] = compound: CC1=C(C2=C(C=C1)C(=O)C3=CC=CC=C3N2CCCN)C
Method in brief: as §1

Measured: log2 fold change

SLC25A16 (UniProt P16260)
inactive: erlotinib -0.002 | [1] 0.023 | [2] 0.002 | [3] 0.076 | [4] 0.073 | [5] -0.038 | [6] -0.024 | [7] -0.038 | [8] -0.067 | [9] 0.11 | IRAK-1-4 Inhibitor I -0.037 | ibrutinib 0.175 | [10] -0.031 | ralimetinib 0.064 | [11] -0.014 | [12] 0.045 | [13] 0.086 | pinometostat 0.065 | [14] 0.015 | [15] 0.093

SLC25A51 (UniProt Q9H1U9)
inactive: erlotinib 0.001 | [1] 0.024 | [2] -0.01 | [3] 0.03 | [4] 0.018 | [5] 0.032 | [6] -0.042 | [7] -0.034 | [8] 0.053 | [9] -0.003 | IRAK-1-4 Inhibitor I 0.078 | ibrutinib 0.014 | [10] 0.011 | ralimetinib -0.035 | [11] 0.037 | [12] 0.095 | [13] 0.041 | pinometostat -0.121 | [14] -0.006 | [15] -0.012

SLC25A3 isoform 2 (UniProt Q00325)
inactive: erlotinib -0.017 | [1] -0.013 | [2] -0.026 | [3] 0.006 | [4] -0.016 | [5] -0.001 | [6] -0.017 | [7] 0.047 | [8] 0.009 | [9] 0.068 | IRAK-1-4 Inhibitor I 0.066 | ibrutinib 0.021 | [10] 0.006 | ralimetinib -0.03 | [11] 0.058 | [12] 0.053 | [13] -0.011 | pinometostat -0.015 | [14] 0.009 | [15] 0.008

SLC38A5 (UniProt Q8WUX1)
inactive: erlotinib -0.006 | [1] -0.017 | [2] 0.087 | [3] -0.002 | [4] 0.018 | [5] 0.05 | [6] 0.036 | [7] -0.065 | [8] -0.033 | [9] 0.11 | IRAK-1-4 Inhibitor I -0.012 | ibrutinib 0.024 | [10] -0.014 | ralimetinib -0.028 | [11] -0.113 | [12] 0.102 | [13] -0.014 | pinometostat -0.014 | [14] 0.039 | [15] 0.068

SLC16A1 (UniProt P53985)
inactive: erlotinib -0.014 | [1] -0.042 | [2] 0.042 | [3] -0.007 | [4] 0.071 | [5] -0.009 | [6] -0.039 | [7] -0.077 | [8] 0 | [9] 0.091 | IRAK-1-4 Inhibitor I 0.066 | ibrutinib 0.038 | [10] -0.082 | ralimetinib -0.109 | [11] 0.017 | [12] 0.159 | [13] -0.044 | pinometostat -0.042 | [14] 0.002 | [15] 0.111

SLC25A21 (UniProt Q9BQT8)
inactive: erlotinib -0.037 | [1] 0.012 | [2] 0.038 | [3] 0.026 | [4] 0 | [5] 0.029 | [6] -0.054 | [7] -0.015 | [8] 0.055 | [9] 0.057 | IRAK-1-4 Inhibitor I 0.043 | ibrutinib 0.005 | [10] 0.019 | ralimetinib -0.136 | [11] 0.022 | [12] 0.076 | [13] -0.011 | pinometostat -0.023 | [14] 0.014 | [15] -0.032

SLC29A1 isoform 2 (UniProt Q99808)
inactive: erlotinib -0.015 | [1] 0.025 | [2] 0.014 | [3] 0.055 | [4] 0.01 | [5] 0.043 | [6] 0.079 | [7] -0.071 | [8] -0.057 | [9] 0.07 | IRAK-1-4 Inhibitor I 0.023 | ibrutinib 0.054 | [10] -0.031 | ralimetinib -0.048 | [11] 0.023 | [12] 0.201 | [13] -0.173 | pinometostat -0.084 | [14] -0.013 | [15] 0.027

SLC35F2 (UniProt Q8IXU6)
inactive: erlotinib -0.001 | [1] 0.017 | [2] 0.087 | [3] 0.006 | [4] 0.006 | [5] 0.069 | [6] 0.08 | [7] -0.024 | [8] -0.021 | [9] 0.167 | IRAK-1-4 Inhibitor I 0.095 | ibrutinib 0.102 | [10] 0.009 | ralimetinib -0.103 | [11] 0.012 | [12] 0.039 | [13] 0.043 | pinometostat -0.018 | [14] -0.084 | [15] 0.062

SLC35E1 (UniProt Q96K37)
inactive: erlotinib -0.077 | [1] -0.035 | [2] 0.03 | [3] -0.008 | [4] 0.011 | [5] 0.062 | [6] 0.033 | [7] -0.099 | [8] -0.032 | [9] -0.021 | IRAK-1-4 Inhibitor I 0.22 | ibrutinib 0.06 | [10] 0.095 | ralimetinib 0.017 | [11] -0.009 | [12] 0.011 | [13] -0.021 | pinometostat -0.06 | [14] 0.007 | [15] -0.084

SLC43A1 (UniProt O75387)
inactive: erlotinib -0.065 | [1] 0.024 | [2] -0.073 | [3] 0.042 | [4] 0.053 | [5] -0.014 | [6] -0.008 | [7] -0.089 | [8] -0.017 | [9] 0.05 | IRAK-1-4 Inhibitor I -0.036 | ibrutinib 0.021 | [10] 0.008 | ralimetinib 0 | [11] 0.018 | [12] 0.065 | [13] -0.014 | pinometostat 0 | [14] 0.046 | [15] 0.121

SLC7A1 (UniProt P30825)
inactive: erlotinib 0.009 | [1] 0.021 | [2] 0.054 | [3] 0.026 | [4] -0.015 | [5] 0.056 | [6] 0.016 | [7] -0.055 | [8] -0.019 | [9] 0.063 | IRAK-1-4 Inhibitor I 0.047 | ibrutinib 0.012 | [10] -0.094 | ralimetinib -0.002 | [11] -0.018 | [12] 0.054 | [13] 0.004 | pinometostat -0.022 | [14] 0.019 | [15] 0

SLC25A10 isoform 2 (UniProt Q9UBX3)
inactive: erlotinib -0.003 | [1] 0.013 | [2] -0.012 | [3] 0.034 | [4] -0.038 | [5] 0.023 | [6] 0.006 | [7] -0.024 | [8] -0.009 | [9] 0.078 | IRAK-1-4 Inhibitor I 0.009 | ibrutinib 0.007 | [10] 0.021 | ralimetinib 0.03 | [11] 0.065 | [12] 0.106 | [13] 0.034 | pinometostat -0.015 | [14] -0.002 | [15] 0.008

SLC25A33 (UniProt Q9BSK2)
inactive: erlotinib -0.02 | [1] -0.043 | [2] 0.106 | [3] 0.011 | [4] -0.017 | [5] 0.046 | [6] 0.009 | [7] -0.013 | [8] -0.032 | [9] 0.008 | IRAK-1-4 Inhibitor I 0.022 | ibrutinib 0.01 | [10] -0.036 | ralimetinib -0.042 | [11] -0.044 | [12] -0.013 | [13] -0.008 | pinometostat -0.007 | [14] 0.03 | [15] -0.064

SLC7A11 (UniProt Q9UPY5)
inactive: erlotinib -0.093 | [1] -0.021 | [2] 0.145 | [3] 0.048 | [4] 0.034 | [5] 0.05 | [6] 0.016 | [7] -0.015 | [8] -0.024 | [9] 0.072 | IRAK-1-4 Inhibitor I 0.019 | ibrutinib 0.015 | [10] -0.029 | ralimetinib -0.11 | [11] -0.151 | [12] 0.182 | [13] 0.044 | pinometostat -0.027 | [14] -0.025 | [15] 0.049

Quoted at random: two records from the list
SLC43A1 (UniProt O75387)
inactive: erlotinib -0.065 | [1] 0.024 | [2] -0.073 | [3] 0.042 | [4] 0.053 | [5] -0.014 | [6] -0.008 | [7] -0.089 | [8] -0.017 | [9] 0.05 | IRAK-1-4 Inhibitor I -0.036 | ibrutinib 0.021 | [10] 0.008 | ralimetinib 0 | [11] 0.018 | [12] 0.065 | [13] -0.014 | pinometostat 0 | [14] 0.046 | [15] 0.121

SLC25A10 isoform 2 (UniProt Q9UBX3)
inactive: erlotinib -0.003 | [1] 0.013 | [2] -0.012 | [3] 0.034 | [4] -0.038 | [5] 0.023 | [6] 0.006 | [7] -0.024 | [8] -0.009 | [9] 0.078 | IRAK-1-4 Inhibitor I 0.009 | ibrutinib 0.007 | [10] 0.021 | ralimetinib 0.03 | [11] 0.065 | [12] 0.106 | [13] 0.034 | pinometostat -0.015 | [14] -0.002 | [15] 0.008

Further results:

SLC25A5 (UniProt P05141)
inactive: erlotinib 0.036 | [1] -0.086 | [2] -0.001 | [3] 0.006 | [4] -0.126 | [5] 0.005 | [6] 0.099 | [7] 0.096 | [8] -0.045 | [9] 0.133 | IRAK-1-4 Inhibitor I 0.046 | ibrutinib 0.007 | [10] 0.018 | ralimetinib 0.125 | [11] 0.042 | [12] 0.095 | [13] -0.116 | pinometostat -0.038 | [14] -0.044 | [15] -0.048

SLC30A6 isoform 2 (UniProt Q6NXT4)
inactive: erlotinib 0.011 | [1] 0.001 | [2] -0.001 | [3] 0.033 | [4] -0.027 | [5] 0.002 | [6] -0.02 | [7] -0.043 | [8] 0.03 | [9] 0.029 | IRAK-1-4 Inhibitor I 0.029 | ibrutinib 0.045 | [10] 0.043 | ralimetinib -0.022 | [11] 0.061 | [12] 0.182 | [13] 0.061 | pinometostat 0.04 | [14] 0.027 | [15] -0.036
